Some of the results follow. Results with a measured potency or affinity are listed apart.
The compounds below were run on Acinetobacter baumannii. Settings: Concentration 32 ug.mL-1; ASSAY_TEST Inhibition of Bacterial Growth; detection method Absorption (OD600); MEDIA CAMHB; plate type 384well; NBS; CORNING #3640; time 18 hr.

**Q.** COC(=O)c1ccc(S)cc1 was tested. Which Inhibition did it give?
**A.** 2.25%

**Q.** For c1ccc2nc3c4cccnc4c4ncccc4c3nc2c1, which Inhibition is on record?
**A.** 14.38%

**Q.** Which Inhibition does the source give for CC(=O)c1cc(C(C)=O)cc(C(C)=O)c1 here?
**A.** 3.33%

**Q.** Which Inhibition does the source give for CC(=NN)c1cc(/C(C)=N/N)cc(/C(C)=N/N)c1 here?
**A.** -2.44%

— ChEMBL document CHEMBL4513140, “CO-ADD screening of Lancaster University (UK) compounds” (2021)
